Holding throughout (assay): Primary Screen for Target Class Profiling of Small Molecule Inhibitors of Methyltransferases
Test [1] concerns the target Glycine N-methyltransferase (Homo sapiens) (UniProt Q14749). Particulars: purified enzyme, MTase-Glo SAH luminescence; measured here: GNMT inhibition; at 40 µM; stronger effect = lower value. From the text:
(§1) PI: Matthew D. Hall Ph.D. and Quinlin M. Hanson Ph.D.
(§2) National Center for Advancing Translational Sciences (NCATS)
(§3) National Institute of Health (NIH), Rockville, MD
(§4) Target class profiling (TCP) is a chemical biology approach amenable to investigating understudied biological targets. TCP is achieved by developing a generalizable assay platform and applying it to screen a curated set of compound libraries against representative members of a target class. Small molecule methyltransferases (SMMTase) are a subclass of methyltransferase that act on metabolites to modulate signaling pathways, metabolize xenobiotics, or balance the available methyl pool. We screened four curated libraries totaling 27,574 unique compounds against the SMMTases nicotinamide N-methyltransferase (NNMT), phenylethanolamine N-methyltransferase (PNMT), histamine N-methyltransferase (HNMT), glycine N-methyltransferase (GNMT), catechol O-methyltransferase (COMT), and guanidinoacetate N-methyltransferase (GAMT). The data generated by this TCP can be leveraged for informed tool molecule development. For example, in the associated publication we identified a chemotype of HNMT-selective inhibitors. Additionally, we identified a putative SMMTase-selective inhibitor with potential as a tool molecule for studying broader methyltransferase biology.
(§5) High-through put screening assays were developed at the National Center for Advancing Translational Science (NCATS) for the enzymes NNMT, PNMT, HNMT, GNMT, COMT, and GAMT. Enzymatic activity was measured as a function of SAM cofactor conversion using the MTase Glo kit (Promega) for all enzymes. All assays were performed in 1536-well format with substrates and SAM concentrations at KM values. Enzyme concentration and assay timing were optimized for 10-20% SAM conversion. Initial screening of 27,574 compounds was done as single-point assays using the highest compound concentration (40 uM). […] These compounds were replated in 11-point dose response and assayed against NNMT, PNMT, HNMT, GNMT, COMT, GAMT, and a counter-assay. The IC50 and efficacy (maximal response) values were determined for each dose-response curve. These values are also accounted for in the area under the curve (AUC) values.
(§6) PROTOCOL TABLE (as described by Inglese J, Shamu CE and Guy RK. 2007)
(§7) SEQUENCE No. (e.g., 1, 2, 3, etc.); […] (e.g., Cells, Incubation, Reagent, etc.); VALUE; DESCRIPTION.
(§8) 1; Reagent; 2 uL; SMMTase Enzyme (2x) in reaction buffer, columns 1- 48.
(§9) 2; Reagent; 1 uL; SAM (4x) in reaction buffer, columns 1-48.
(§10) 3; Controls; 23 nL; DMSO in column 4; sinefungin in DMSO (0 uM - 40 uM) in 7-point 1:2 dilution series (n = 2) in column 2.
(§11) 4; Compounds; 23 nL; Columns 5-48.
(§12) 5; Reagent; 1 uL; Substrate (4x) in reaction buffer, columns 2-48.
(§13) 6; Time; 20-30 min; Incubation.
(§14) 7; Reagent; 1 uL; MTase-Glo reagent (5X), columns 1-48.
(§15) 8; Time; 30 min; Incubation.
(§16) 9; Reagent; 5 uL; MTase-Glo Detection reagent, columns 1-48.
(§17) 10; Time; 30 min; Incubation, luminescence evolution.
(§18) 11; Detection; Luminescence; ViewLux uHTS Microplate Imager (PerkinElmer).
(§19) NOTES (numbers refer to Sequence numbers above)
(§20) 1, 2, 5. White Medium Binding Greiner 1536-well plates (Cat #789175-F, Greiner Bio-One, Monroe, NC); Reaction buffer: 50 mM Tris, pH 8.0, 3 mM MgCl2, 1 mM EDTA, 50 mM NaCl, 1 mM DTT, and 0.1 mg/mL BSA. Evaporation was prevented by covering assay plates with metal lids containing holes to allow gas diffusion.
(§21) 1. Six SMMTase were profiled: HNMT, GNMT, PNMT, COMT, NNMT, GAMT
5. […]

Protein sequences, listed by entry. Tags and fused reporters are not part of them.
UniProt Q14749, whole entry: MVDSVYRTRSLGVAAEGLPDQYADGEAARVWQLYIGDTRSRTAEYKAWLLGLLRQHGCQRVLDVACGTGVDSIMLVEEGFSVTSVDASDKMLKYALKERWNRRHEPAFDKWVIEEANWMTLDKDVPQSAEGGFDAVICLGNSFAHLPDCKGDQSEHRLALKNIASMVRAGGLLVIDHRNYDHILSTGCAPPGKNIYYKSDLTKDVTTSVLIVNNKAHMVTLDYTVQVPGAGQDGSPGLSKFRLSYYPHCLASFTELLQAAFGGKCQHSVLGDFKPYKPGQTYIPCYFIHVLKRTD
UniProt P50135, whole entry: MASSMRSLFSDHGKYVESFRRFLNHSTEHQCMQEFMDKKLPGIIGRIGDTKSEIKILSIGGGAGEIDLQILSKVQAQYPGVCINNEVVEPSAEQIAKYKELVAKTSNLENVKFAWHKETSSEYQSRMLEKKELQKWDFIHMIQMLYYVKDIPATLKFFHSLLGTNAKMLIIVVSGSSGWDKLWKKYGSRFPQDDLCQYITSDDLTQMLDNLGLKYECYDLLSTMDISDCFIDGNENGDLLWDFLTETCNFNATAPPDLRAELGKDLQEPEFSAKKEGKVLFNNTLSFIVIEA
UniProt P40261, whole entry: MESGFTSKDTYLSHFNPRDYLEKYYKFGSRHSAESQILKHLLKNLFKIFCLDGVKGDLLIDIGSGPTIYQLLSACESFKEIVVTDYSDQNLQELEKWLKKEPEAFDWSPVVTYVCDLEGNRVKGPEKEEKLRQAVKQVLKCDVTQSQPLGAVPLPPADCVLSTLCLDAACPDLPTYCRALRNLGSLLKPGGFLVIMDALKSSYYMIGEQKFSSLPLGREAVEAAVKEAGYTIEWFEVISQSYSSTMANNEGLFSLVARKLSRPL
UniProt P11086, whole entry: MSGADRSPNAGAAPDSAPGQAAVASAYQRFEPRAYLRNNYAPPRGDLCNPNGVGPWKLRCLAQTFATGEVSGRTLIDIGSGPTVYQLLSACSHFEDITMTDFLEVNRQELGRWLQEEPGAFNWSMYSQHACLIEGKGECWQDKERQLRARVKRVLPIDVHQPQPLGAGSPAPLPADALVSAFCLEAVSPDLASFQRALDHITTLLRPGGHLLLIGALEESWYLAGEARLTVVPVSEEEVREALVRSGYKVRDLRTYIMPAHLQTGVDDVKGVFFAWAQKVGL

Test [2] addresses Guanidinoacetate N-methyltransferase (Homo sapiens) (UniProt Q14353). Particulars: purified enzyme, MTase-Glo SAH luminescence; measured here: GAMT inhibition; at 40 µM; stronger effect = lower value.
Text: as §1, §2, §3, §4, §5, §6, §7, §8, §9, §10, §11, §12, §13, §14, §15, §16, §17, §18, §19, §20, §21
5. […]

Test [3] has as its target Histamine N-methyltransferase (Homo sapiens) (UniProt P50135). The settings on record: purified enzyme, MTase-Glo SAH luminescence; measured here: HNMT inhibition; at 40 µM; stronger effect = lower value.
Text: as §1, §2, §3, §4, §5, §6, §7, §8, §9, §10, §11, §12, §13, §14, §15, §16, §17, §18, §19, §20, §21
5. […]

The target in test [4] is Nicotinamide N-methyltransferase (Homo sapiens) (UniProt P40261). The settings on record: purified enzyme, MTase-Glo SAH luminescence; measured here: NNMT inhibition; at 40 µM; stronger effect = lower value.
Text: as §1, §2, §3, §4, §5, §6, §7, §8, §9, §10, §11, §12, §13, §14, §15, §16, §17, §18, §19, §20, §21
5. […]

Test [5] addresses Phenylethanolamine N-methyltransferase (Homo sapiens) (UniProt P11086). Particulars: purified enzyme, MTase-Glo SAH luminescence; measured here: PNMT inhibition; at 40 µM; stronger effect = lower value.
Text: as §1, §2, §3, §4, §5, §6, §7, §8, §9, §10, §11, §12, §13, §14, §15, §16, §17, §18, §19, §20, §21
5. […]

Consider one compound from PubChem BioAssay AID1745853 (National Center for Advancing Translational Sciences (NCATS), 2022).

This is one part of the list.
On the % scale 0 is the no-effect control and ±100 the full control effect.

On to `CC(=O)N1CCc2ccc(N(C(=O)/C=C/c3cccc(C#N)c3)C3CCN(CCC4CCCC4)CC3)cc21`, for which the activity change, negative = inhibition in test [1] is 5.33%; in test [2] it was 5.78%; in test [3] it was -2.67%; in test [4], 2.38%; in test [5] it was 4.15%.
